Patent publication US6335157B1, “Method based on localization of Hsp90 to the centrosome” (The European Molecular Biology Laboratory, priority 1999, dated 2002)
For at least one compound, name, drawing or mass did not settle the structure.

Test system: Hela and human epithelial kidney 293 cells
Test: Geldanamycin treatment of cells, immunofluorescence staining with anti-α-tubulin, anti-γ-tubulin and anti-Hsp90 antibodies
Format: cell-based
Settings: 1 μg/ml geldanamycin
Description: Geldanamycin specifically interferes with the function of Hsp90 by binding to the ATP binding site of Hsp90 (Prodromou et al., 1997, Cell 90:65-75; Stebbins et al., 1997, Cell 89:239-250). Hela and human epithelial kidney 293 cells were treated with 1 μg/ml geldanamycin for times ranging from […] (15 minutes, 30 minutes, 1 hour, 5 hours, 15 hours, 20 hours and 30 hours) and were stained with anti-α-tubulin, anti-γ-tubulin and anti-Hsp90 antibodies. […] However, aberrant mitotic spindles were detected from as early as 1 hour of treatment with geldanamycin. More than 50% of the mitotic figures produced in the presence of the drug after 20 hours of treatment contained aberrant mitotic figures in which the centrosomes, the spindles, and the distribution of chromatin were severely disrupted. […] The spindles of these cells were rather asymmetric, with unequal amounts of microtubules in each hemi-spindle and spindle poles very often detached from the centrosome. The aster microtubules which are organized around the centrosome were also abnormal in number and distribution. […] About 50% of the cells contained misaligned chromosomes. Thus, while the centrosome and the cytoskeleton of interphase cells were insensitive to geldanamycin, mitotic centrosomes cannot be properly formed in the presence of geldanamycin. […]

COC1=C2C[C@@H](C)C[C@H](OC)[C@H](O)[C@@H](C)/C=C(\C)[C@H](OC(N)=O)[C@@H](OC)/C=C\C=C(/C)C(=O)NC(=CC1=O)C2=O [geldanamycin]
anaphases observed (block in the metaphase-anaphase transition): no anaphases were observed | effect on the microtubule cytoskeleton and on the morphology and number of centrosomes in interphase cells (0 to 32 hours, immunofluorescence microscopy with antibodies against α- and γ-tubulin): did not result in any noticeable effect
